No constants are given. Whether binding was seen depends on the method and setting. Binding seen in cells or lysates may run through a third protein. Some results given as binding are weak or reduced against the parent protein; the word gives no strength.
Tests used:
[1] = target: Flag-p62 (full-length SQSTM1/p62, wild type) (UniProt Q13501); test: co-IP; HEK293T cells co-transfected with Flag-p62 or Flag-p62 △LB and Myc-GCN5; precipitated with anti-Flag; western blot
Myc-GCN5 = Myc-GCN5 (UniProt Q92830); test: co-IP; Flag-p62 and Myc-GCN5 with or without overexpression of HA-Sirt1; precipitated with anti-Myc; western blot

Row | binding [1] | binding (Myc-GCN5) | Substance
1 | binds | – | Myc-GCN5 (from UniProt Q92830 1-837) (enzyme)
2 | – | binds | Flag-p62 (full-length SQSTM1/p62, wild type) (from UniProt Q13501 1-440)
